Data from patent US10701928B2, “Method for animal tissue material disinfection and sterilization and corresponding animal tissue soak solution” (Beijing Ruijian Gaoke Biotechnology Co., Ltd., priority 2013, dated 2020).

Experiment: Differential scanning calorimetry of the treated tissue matrix
Format: physicochemical
Conditions: Example 5: fresh porcine hide about 1 mm, treated 1-2 hours, washed with phosphate buffer

Row | SMILES | damage on the tissue matrix (DSC)
1 | CC(=O)OO [0.2% peracetic acid, peracetic acid] | different degrees of damage on the tissue matrix
2 | II [7.5% iodine solution, iodine] | different degrees of damage on the tissue matrix

Some compounds share one wording; it may come from a single statement.
